Measurements published in article PMC10967972, “Different Coactivator Recruitment to Human PPARα/δ/γ Ligand-Binding Domains by Eight PPAR Agonists to Treat Nonalcoholic Fatty Liver Disease” (Biomedicines, 2024).
These are yes or no findings as the source states them, for the method shown. Some entries that bind do so weakly or less than the wild type.

Tests used:
[1] = biological target: T1, Human PPARδ ligand-binding domain (AAs 170–441) (human) (UniProt Q03181); experiment: FRET or BRET; LANCE Ultra TR-FRET, cell-free, as a1 (Buffer A, 2 h, room temperature); agonist added: saroglitazar, concentration series; response as percent of the full agonist's maximal response; both purified
T1 sequence: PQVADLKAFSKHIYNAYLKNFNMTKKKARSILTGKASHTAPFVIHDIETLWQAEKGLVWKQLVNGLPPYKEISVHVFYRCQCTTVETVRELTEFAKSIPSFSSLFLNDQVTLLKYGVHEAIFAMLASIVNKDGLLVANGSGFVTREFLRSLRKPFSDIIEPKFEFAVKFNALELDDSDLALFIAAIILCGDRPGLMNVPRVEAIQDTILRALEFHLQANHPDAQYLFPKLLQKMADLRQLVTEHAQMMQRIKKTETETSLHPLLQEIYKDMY

[2] = biological target: T1, Human PPARδ ligand-binding domain (AAs 170–441) (human); experiment: FRET or BRET; LANCE Ultra TR-FRET, cell-free, as a1 (Buffer A, 2 h, room temperature); agonist added: pioglitazone, concentration series; response as percent of the full agonist's maximal response; both purified
[3] = biological target: T1, Human PPARδ ligand-binding domain (AAs 170–441) (human); experiment: FRET or BRET; LANCE Ultra TR-FRET, cell-free, as a1 (Buffer A, 2 h, room temperature); agonist added: saroglitazar, concentration series; response as percent of the full agonist's maximal response; both purified; remark: listed apart in the source
[4] = biological target: T1, Human PPARδ ligand-binding domain (AAs 170–441) (human); experiment: condition: only with fenofibric acid as the agonist; FRET or BRET; LANCE Ultra TR-FRET, cell-free, as a1 (Buffer A, 2 h, room temperature); agonist added: fenofibric acid, concentration series; response as percent of the full agonist's maximal response; both purified

B1: PGC1α coactivator peptide, biotin-… (AA 137–155) (peptide)
peptide: EAEEPSLLKKLLLAPANTQ
modifications: biotin on the N-terminus
[1]
  binding: binds weakly
[2]
  binding: no binding (condition: with pioglitazone as the agonist)
[3]
  binding: no binding (condition: with saroglitazar as the agonist)
[4]
  binding: no binding
